{"source": "PubChem BioAssay AID493014", "about": "(National Center for Advancing Translational Sciences (NCATS), 2011)", "note": "Among all 340,000 compounds or so, about 170 (0.05%) were called active. This list was built around the results that the source calls inconclusive (neither active nor inactive); the mix of calls is not that of the screen. Calls follow the shape of the dose curve; as a rule, active = well fitted inhibition curve with a large enough effect in the signal ratio, with a control signal flat (not every such curve was filed as active); inconclusive = small, poorly fitted or top-dose-only effect, or effect the other way, or a change in a side signal; inactive = flat fitted curve, though single readings scatter; the % refers to the signal ratio. Where the call is inconclusive, the potency comes from a doubtful curve fit. Potency is read from the fitted curve at half-maximal effect."}
{"test": "qHTS Assay to Find Inhibitors of Chronic Active B-Cell Receptor Signaling;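 as to activity change, negative = inhibition: plate controls were basal doxycycline-induced cells for no effect and cells given 10 µM MG132 for full effect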", "conditions": "ABC-DLBCL IkBa-CBG/CBR reporter, luminescence ratio (green luciferase fused to IkBa over red control in TMD8 lymphoma cells), 4 h; activity change, negative = inhibition: at 46.1 µM (top of the series) unless noted", "summary_of_the_method": "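Concentration-response series (up to 46 uM) were applied to TMD8 dual-reporter cells for 4 h at 37C with doxycycline. Green/red ratio, after filter-overlap correction, defined %Activity; red signal alone was normalised to basal cells and zero luminescence.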"}
{"smiles": "C/C(=N\\NC(=O)COc1c(C)cccc1C)c1cccs1", "activity change, negative = inhibition": "inconclusive: 6.43%"}
{"smiles": "COc1ccc(C(=O)Cc2ccc(F)cc2)c(OC)c1", "activity change, negative = inhibition": "inconclusive: 8.24%"}
{"smiles": "CCC(C)NC(=O)c1ccc2c(c1)N(Cc1ccccc1)C(=O)CS2", "note": "(stereo not drawn)", "activity change, negative = inhibition": "inconclusive: 7.24%"}
{"smiles": "O=C(O)/C(=C\\c1cccs1)Sc1nnc(-c2ccc(F)cc2)o1", "Potency": "inconclusive: 0.0891 µM [falling, full curve, poor fit]"}
{"smiles": "COc1cc(OC)c(/C=N/NC(N)=S)cc1Br", "activity change, negative = inhibition": "inactive"}
{"smiles": "CC(C)c1ccc(NC(=O)Cn2ncc3ccccc32)cc1", "activity change, negative = inhibition": "inconclusive: 6.84%"}
{"smiles": "Cc1ccc(Nc2nc(CSc3nnc(-c4cccnc4)n3-c3ccccc3F)cs2)cc1", "activity change, negative = inhibition": "inconclusive: -4.41%"}
{"smiles": "CCC(=O)Nc1cccc(NC(=O)c2cc3ccccc3o2)c1", "activity change, negative = inhibition": "inconclusive: 405%"}
{"smiles": "Cc1ccc(N(CC(O)CN2CCCCC2)S(=O)(=O)c2ccccc2[N+](=O)[O-])cc1", "note": "(stereo not drawn)", "activity change, negative = inhibition": "inactive"}
{"smiles": "CN(C)c1ccc(C(C[N+](=O)[O-])c2c(N)n(C)c(=O)n(C)c2=O)c(F)c1C#N", "note": "(stereo not drawn)", "Potency": "inconclusive: 22.4 µM [cytotoxic, single point]"}
{"smiles": "Cc1cc(NC(=O)CSc2nc3cc(Cl)ccc3s2)no1", "activity change, negative = inhibition": "inconclusive: 7.14%"}
{"smiles": "Cc1ccc(-n2[nH]c(C)c(C=Nc3cc(C)ccn3)c2=O)cc1", "Potency": "inconclusive: 18.4 µM [falling, partial curve, poor fit]"}
{"smiles": "CC[n+]1c(/C=C2\\C=C(C)CC(C)C2)sc2ccccc21", "note": "(stereo not drawn)", "activity change, negative = inhibition": "inconclusive: -27.8%"}
{"smiles": "O=c1c2c(-c3cccc([N+](=O)[O-])c3)ccnc2[nH]n1-c1ccccc1", "activity change, negative = inhibition": "inconclusive: -13.5%"}
{"smiles": "O=C(CN(C(=O)CCC(=O)Nc1nccs1)c1ccccc1F)NCC1CCCO1", "note": "(stereo not drawn)", "activity change, negative = inhibition": "inconclusive: 4.02%"}
{"smiles": "CCN1CCCC1CNC(=O)c1cc2ccc(OC)cc2[nH]1", "note": "(stereo not drawn)", "activity change, negative = inhibition": "inconclusive: 1.33%"}
{"smiles": "COc1ccc(C(=O)Nc2nc(C)c(C(=O)N(C)C)s2)cc1OC", "activity change, negative = inhibition": "inconclusive: -0.819%"}
{"smiles": "CN1C(=O)C(CC(=O)Nc2ccc(Cl)cc2)N(Cc2ccco2)C1=S", "note": "(stereo not drawn)", "Potency": "inconclusive: 22.4 µM [falling, single point]"}
{"smiles": "C=CC[C@@H](CC(=O)N[C@@H](CO)Cc1ccccc1)C(=O)N[C@@H](C)COC(=O)[C@@H](CC=C)Cc1ccc(F)cc1", "activity change, negative = inhibition": "inactive"}
{"smiles": "Cc1ccc(C23CC4CC(CC(NC(=O)NCCN(C)C)(C4)C2)C3)cc1", "activity change, negative = inhibition": "inactive"}
{"smiles": "CCOc1ccc(N2CC(C(=O)NCCCc3ccccc3)CC2=O)cc1", "note": "(stereo not drawn)", "activity change, negative = inhibition": "inconclusive: 1.25%"}
{"smiles": "COCCN(C(=O)CN1CCc2ccccc21)c1c(N)n(Cc2ccccc2)c(=O)[nH]c1=O", "activity change, negative = inhibition": "inconclusive: 4.41%"}
{"smiles": "c1ccc(CCc2cc3ccccc3[nH]2)cc1", "activity change, negative = inhibition": "inconclusive: -2.4%"}
{"smiles": "CCC(=O)Nc1cccc(NC(=O)c2ccc3c(c2)OCCO3)c1", "Potency": "inconclusive: 18.4 µM [falling, partial curve]"}
{"smiles": "O=C(Nc1ccc(Cl)c(Cl)c1)OCCNC(=O)c1ccncc1", "activity change, negative = inhibition": "inconclusive: 0.747%"}
{"smiles": "O=C(CSc1cn(CCNC(=O)c2c(F)cccc2F)c2ccccc12)NCC1CCCO1", "note": "(stereo not drawn)", "activity change, negative = inhibition": "inactive"}
{"smiles": "Cc1nc2scc(-c3ccc(C(C)(C)C)cc3)c2c(=O)n1N", "activity change, negative = inhibition": "inconclusive: -10.6%"}
{"smiles": "CC(=O)Nc1ccc(S(=O)(=O)NCCC(=O)OCC(=O)c2cccc(Br)c2)cc1", "activity change, negative = inhibition": "inconclusive: 3.99%"}
{"smiles": "CC1(C)CC(=O)C2=C(C1)N=C1SCCC(=O)N1C2c1cccc([N+](=O)[O-])c1", "note": "(stereo not drawn)", "activity change, negative = inhibition": "inconclusive: -11%"}
{"smiles": "CCN(CC)C(=S)Nc1ccc(Cl)c(Cl)c1", "activity change, negative = inhibition": "inconclusive: -0.622%"}
{"smiles": "Cc1ccc2c(n1)sc1c(-c3ccccc3)c(C#N)c(N)nc12", "activity change, negative = inhibition": "inconclusive: 15.1%"}
{"smiles": "Cc1sc2ncn(CC(=O)NCC(=O)N3CCN(c4ccc(F)cc4)CC3)c(=O)c2c1C", "activity change, negative = inhibition": "inactive"}
{"smiles": "CCOc1ccc(C(=O)NCCNC(=O)c2ccc(OCC)cc2)cc1", "activity change, negative = inhibition": "inactive"}
{"smiles": "CC(C)NC(=O)Cn1cc(S(=O)(=O)N2CCCC2)c(S(=O)(=O)N2CCCC2)c1", "activity change, negative = inhibition": "inactive"}
{"smiles": "Cn1cc(CC(=O)NCc2ccc(F)cc2)c2ccccc21", "activity change, negative = inhibition": "inconclusive: 5.13%"}
{"smiles": "Cc1cc(NC(=O)CSc2nc3c(c(=O)n2-c2ccc(Br)cc2)SCC3)no1", "activity change, negative = inhibition": "inactive"}
{"smiles": "Cc1cccc2nc(=S)n(C(=O)c3ccco3)n12", "Potency": "inconclusive: 0.259 µM [rising, full curve, poor fit]"}
{"smiles": "COc1ccc(OC)c(NC(=O)CSc2nnc(C3CCCCC3)o2)c1", "activity change, negative = inhibition": "inconclusive: -12.4%"}
{"smiles": "COC(=O)c1ccc(OC)c(CSc2nnc(COc3ccc(Cl)cc3)o2)c1", "activity change, negative = inhibition": "inconclusive: 6.76%"}
{"smiles": "COc1cc(C(=O)Nc2ccc(C)cn2)ccc1OCC(=O)N1CCOCC1", "Potency": "inconclusive: 6.51 µM [falling, partial curve, poor fit]"}
{"smiles": "COc1ccccc1NC(=O)CCSCCC(=O)Nc1ccccc1OC", "activity change, negative = inhibition": "inconclusive: -17.1%"}
{"smiles": "Cc1ccn2cc(-c3cccc(NC(=O)CCC(=O)O)c3)nc2c1", "activity change, negative = inhibition": "inconclusive: -24.3%"}
{"smiles": "C[C@H](NC(=O)Nc1ccccc1F)C(=O)O", "Potency": "inconclusive: 6.31 µM [falling, single point]"}
{"smiles": "O=C(CN1CCN(S(=O)(=O)c2ccccc2)CC1)Nc1ccc(Cl)cn1", "activity change, negative = inhibition": "inconclusive: 7.83%"}
{"smiles": "COc1ccc(OC)c(C2=NOC(C(=O)N3CCCc4ccccc43)C2)c1", "note": "(stereo not drawn)", "activity change, negative = inhibition": "inconclusive: 14%"}
{"smiles": "CCc1cc2c(Nc3ccccc3O)nc(C)nc2s1", "activity change, negative = inhibition": "inactive"}
{"smiles": "CCOC(=O)c1c(C)n(C)c2ccc(OC)c(NC(=O)CN3CCSCC3)c12", "activity change, negative = inhibition": "inconclusive: -7.92%"}
{"smiles": "Cc1ccc(O)c(NC(=S)NC(=O)CC(C)C)c1", "activity change, negative = inhibition": "inactive"}
{"smiles": "O=C(C1CC(=O)N(c2ccccc2F)C1)N1CCOCC1", "note": "(stereo not drawn)", "activity change, negative = inhibition": "inactive"}
{"smiles": "Nc1cc(-c2ccc(OC(F)(F)F)cc2)nn1-c1ccc(Cl)c(Cl)c1", "Potency": "inconclusive: 14.1 µM [rising, partial curve]"}
{"smiles": "O=C(Nc1ccc(C(=O)O)cc1)Nc1ccc([N+](=O)[O-])cc1", "Potency": "inconclusive: 22.4 µM [falling, partial curve]"}
{"smiles": "CNC(=O)c1cc(C(=O)c2ccccc2C(F)(F)F)c[nH]1", "activity change, negative = inhibition": "inconclusive: -12.3%"}
{"smiles": "Nc1[nH]n2c(=O)c3c(nc2c1N=Nc1ccc(Cl)cc1)CCCC3", "activity change, negative = inhibition": "inactive"}
